# Measurements reported in the supplement of paper PMC8728848.
# The list shows a part of the results.
# B1: PX14343G-pdi-535-24-535 (Parabacteroides distasonis) (protein)
# chain: LDTVPKDQLAPSTTWQTEADAKGFIVGCYKDLLDGNTLLYLDCGSDIGYNNFPWEGFRPWGDGSLSSSNPGQILYDYKSIRKANTFLENVDKVTFSSDAVKANYVAQAKAIRAYKYFLMNWWYGGVPIISSYSSADEAKVERNTEQEVRDYIAKDLDEALAGIAEAPEARGYIAKGAVLAIKMREALYYGDWQKAKDAAKAIIDLKQYELDPDYTNLFKVSGVDSKEIILADQNIETLDGLGTIGQMYNNVDQGWSSIVPTQNLVDMYEMSDGLTKEESKTYDAKHPFANRDPRMAMTILYPGRDWRGDVLNTLDEKLQDGTVNKNFPTYTDNASKSALTWAKYLDPMDQYGDVWSSGACPIVFRYAEVLLTYAEAANELSGPSDEIYGYLNQIRQRVGMGEVDKAKYGTKDKLRELIRRERTVELAGEGLRRADIVRWQEDGKMLAEKVMNGDLLRVTGTINYGESEPTKRAEITGTAVIETRQFSSRNRYLPIPQTSMDKNPNLKQNPGY
# Tests used:
# Test in all cases: glycan array binding signal (z-score within array); higher = stronger binding
# Settings in all cases: glycan notation: IUPAC condensed, linker removed
# Gal(b1-2)Gal = biological target: Gal(b1-2)Gal
# In short: (§1)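 From the Consortium for Functional Glycomics database, 3228 arrays were curated, keeping only those whose protein sequence was available. Binding is given as a within-array Z-score averaged across arrays sharing a protein sequence and across linkers. Negative Z-scores can be read as non-binding.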
# Gal(b1-3)Gal = biological target: Gal(b1-3)Gal
# In short: as §1
# Gal(b1-3)Gal(b1-4)GlcNAc = biological target: Gal(b1-3)Gal(b1-4)GlcNAc
# In short: as §1
# Gal(b1-3)GalNAc = biological target: Gal(b1-3)GalNAc
# In short: as §1
# [1] = biological target: Gal(b1-3)GalNAc(a1-3)[Fuc(a1-2)]Gal(b1-4)Glc
# In short: as §1
# [2] = biological target: Gal(b1-3)GalNAc(a1-3)[Fuc(a1-2)]Gal(b1-4)GlcNAc
# In short: as §1
# Gal(b1-3)GalNAc(b1-3)Gal = biological target: Gal(b1-3)GalNAc(b1-3)Gal
# In short: as §1
# [3] = biological target: Gal(b1-3)GalNAc(b1-3)Gal(a1-4)Gal(b1-4)Glc
# In short: as §1
# [4] = biological target: Gal(b1-3)GalNAc(b1-4)Gal(b1-4)Glc
# In short: as §1
# [5] = biological target: Gal(b1-3)GalNAc(b1-4)[Neu5Ac(a2-3)]Gal(b1-4)Glc
# In short: as §1
# Gal(b1-3)GlcNAc = biological target: Gal(b1-3)GlcNAc
# In short: as §1
# [6] = biological target: Gal(b1-3)GlcNAc(a1-3)Gal(b1-4)GlcNAc
# In short: as §1
# [7] = biological target: Gal(b1-3)GlcNAc(a1-6)Gal(b1-4)GlcNAc
# In short: as §1
# Gal(b1-3)GlcNAc(b1-2)Man = biological target: Gal(b1-3)GlcNAc(b1-2)Man
# In short: as §1
# [8] = biological target: Gal(b1-3)GlcNAc(b1-2)Man(a1-3)[Gal(b1-3)GlcNAc(b1-2)Man(a1-6)]Man(b1-4)GlcNAc(b1-4)GlcNAc
# In short: as §1
# [9] = biological target: Gal(b1-3)GlcNAc(b1-2)Man(a1-3)[Gal(b1-3)GlcNAc(b1-2)Man(a1-6)]Man(b1-4)GlcNAc(b1-4)[Fuc(a1-6)]GlcNAc
# In short: as §1
# [10] = biological target: Gal(b1-3)GlcNAc(b1-2)Man(a1-3)[GlcNAc(b1-4)][Gal(b1-3)GlcNAc(b1-2)Man(a1-6)]Man(b1-4)GlcNAc(b1-4)GlcNAc
# In short: as §1
# [11] = biological target: Gal(b1-3)GlcNAc(b1-2)[Gal(b1-3)GlcNAc(b1-6)]Man(a1-6)[Gal(b1-3)GlcNAc(b1-2)Man(a1-3)]Man(b1-4)GlcNAc(b1-4)GlcNAc
# In short: as §1
# [12] = biological target: Gal(b1-3)GlcNAc(b1-3)Gal(b1-3)GlcNAc
# In short: as §1
# [13] = biological target: Gal(b1-3)GlcNAc(b1-3)Gal(b1-4)Glc
# In short: as §1
# [14] = biological target: Gal(b1-3)GlcNAc(b1-3)Gal(b1-4)GlcNAc
# In short: as §1
# [15] = biological target: Gal(b1-3)GlcNAc(b1-3)Gal(b1-4)GlcNAc(b1-2)Man(a1-3)[Gal(b1-3)GlcNAc(b1-3)Gal(b1-4)GlcNAc(b1-2)Man(a1-6)]Man(b1-4)GlcNAc(b1-4)GlcNAc
# In short: as §1
# [16] = biological target: Gal(b1-3)GlcNAc(b1-3)Gal(b1-4)GlcNAc(b1-2)[Gal(b1-3)GlcNAc(b1-3)Gal(b1-4)GlcNAc(b1-6)]Man(a1-6)[Gal(b1-3)GlcNAc(b1-3)Gal(b1-4)GlcNAc(b1-2)Man(a1-3)]Man(b1-4)GlcNAc(b1-4)[Fuc(a1-6)]GlcNAc
# In short: as §1
# [17] = biological target: Gal(b1-3)GlcNAc(b1-3)Gal(b1-4)GlcNAc(b1-3)Gal(b1-4)GlcNAc(b1-2)[Gal(b1-3)GlcNAc(b1-3)Gal(b1-4)GlcNAc(b1-3)Gal(b1-4)GlcNAc(b1-6)]Man(a1-6)[Gal(b1-3)GlcNAc(b1-3)Gal(b1-4)GlcNAc(b1-3)Gal(b1-4)GlcNAc(b1-2)Man(a1-3)]Man(b1-4)GlcNAc(b1-4)[Fuc(a1-6)]GlcNAc
# In short: as §1
# [18] = biological target: Gal(b1-3)GlcNAc(b1-3)Gal(b1-4)GlcNAc(b1-6)[Gal(b1-3)GlcNAc(b1-3)]Gal(b1-4)Glc
# In short: as §1
# [19] = biological target: Gal(b1-3)GlcNAc(b1-3)Gal(b1-4)[Fuc(a1-3)]GlcNAc
# In short: as §1
# [20] = biological target: Gal(b1-3)GlcNAc(b1-3)Gal(b1-4)[Fuc(a1-3)]GlcNAc(b1-6)[Gal(b1-3)GlcNAc(b1-3)]Gal(b1-4)Glc
# In short: as §1
# [21] = biological target: Gal(b1-3)GlcNAc(b1-3)GalNAc
# In short: as §1
# [22] = biological target: Gal(b1-3)GlcNAc(b1-6)Gal(b1-4)GlcNAc
# In short: as §1
# [23] = biological target: Gal(b1-3)GlcNAc(b1-6)GalNAc
# In short: as §1
# [24] = biological target: Gal(b1-3)GlcNAc(b1-6)[Gal(b1-3)]GalNAc
# In short: as §1
# Gal(b1-3)GlcNAc6S = biological target: Gal(b1-3)GlcNAc6S
# In short: as §1
# [25] = biological target: Gal(b1-3)[Fuc(a1-4)]GlcNAc
# In short: as §1
# [26] = biological target: Gal(b1-3)[Fuc(a1-4)]GlcNAc(b1-2)Man
# In short: as §1
# [27] = biological target: Gal(b1-3)[Fuc(a1-4)]GlcNAc(b1-2)Man(a1-3)[Gal(b1-3)[Fuc(a1-4)]GlcNAc(b1-2)Man(a1-6)]Man(b1-4)GlcNAc(b1-4)[Fuc(a1-6)]GlcNAc
# In short: as §1
# [28] = biological target: Gal(b1-3)[Fuc(a1-4)]GlcNAc(b1-3)Gal(b1-3)[Fuc(a1-4)]GlcNAc
# In short: as §1
# [29] = biological target: Gal(b1-3)[Fuc(a1-4)]GlcNAc(b1-3)Gal(b1-4)[Fuc(a1-3)]GlcNAc
# In short: as §1
binder,measurement,setting,value
B1,glycan array binding signal (z-score),Gal(b1-2)Gal,0.59
same,glycan array binding signal (z-score),Gal(b1-3)Gal,0.479
same,glycan array binding signal (z-score),Gal(b1-3)Gal(b1-4)GlcNAc,0.673
same,glycan array binding signal (z-score),Gal(b1-3)GalNAc,-0.242
same,glycan array binding signal (z-score),[1],-1.38
same,glycan array binding signal (z-score),[2],0.052
same,glycan array binding signal (z-score),Gal(b1-3)GalNAc(b1-3)Gal,-0.186
same,glycan array binding signal (z-score),[3],-0.25
same,glycan array binding signal (z-score),[4],-0.297
same,glycan array binding signal (z-score),[5],-0.527
same,glycan array binding signal (z-score),Gal(b1-3)GlcNAc,-0.673
same,glycan array binding signal (z-score),[6],-0.62
same,glycan array binding signal (z-score),[7],-0.235
same,glycan array binding signal (z-score),Gal(b1-3)GlcNAc(b1-2)Man,0.398
same,glycan array binding signal (z-score),[8],0.51
same,glycan array binding signal (z-score),[9],0.087
same,glycan array binding signal (z-score),[10],0.434
same,glycan array binding signal (z-score),[11],0.783
same,glycan array binding signal (z-score),[12],0.138
same,glycan array binding signal (z-score),[13],-0.237
same,glycan array binding signal (z-score),[14],-0.023
same,glycan array binding signal (z-score),[15],-0.318
same,glycan array binding signal (z-score),[16],0.821
same,glycan array binding signal (z-score),[17],0.718
same,glycan array binding signal (z-score),[18],0.24
same,glycan array binding signal (z-score),[19],-0.53
same,glycan array binding signal (z-score),[20],0.066
same,glycan array binding signal (z-score),[21],-0.933
same,glycan array binding signal (z-score),[22],0.186
same,glycan array binding signal (z-score),[23],-0.848
same,glycan array binding signal (z-score),[24],0.402
same,glycan array binding signal (z-score),Gal(b1-3)GlcNAc6S,-0.626
same,glycan array binding signal (z-score),[25],0.04
same,glycan array binding signal (z-score),[26],-0.295
same,glycan array binding signal (z-score),[27],0.312
same,glycan array binding signal (z-score),[28],-0.411
same,glycan array binding signal (z-score),[29],-0.484

# Reprinted at random: two records from the list.
binder,measurement,setting,value
B1,glycan array binding signal (z-score),Gal(b1-3)GlcNAc6S,-0.626
same,glycan array binding signal (z-score),[4],-0.297
